Reference: publication PMC8997913, “Lichen Secondary Metabolites Inhibit the Wnt/β-Catenin Pathway in Glioblastoma Cells and Improve the Anticancer Effects of Temozolomide” (Cells, 2022)

Test: Parallel artificial membrane permeability assay for the blood-brain barrier (PAMPA-BBB)
Type: in vitro ADME
Settings: pH 7.4, 4 h, 37 °C, mean ± SEM, n = 3, Pe > 1.5 high, < 1.5 low permeation predicted, read-out: Pe × 10^−6
Method: The parallel artificial membrane permeability assay (PAMPA) for the blood-brain barrier (BBB) (Pion Inc., Billerica, MA, USA) was used to analyze whether the lichen secondary metabolites tested in this study were able to cross the BBB. The stock solutions (5 mg/mL) of tested compounds were prepared using DMSO. Next, the donor solution (24.75 μg/mL) using Prisma buffer (pH = 7.4; Prisma HT, Pion Inc., Billerica, MA, USA) were made. Firstly, 180 μL of the donor solution were added to the donor wells. Then the filter membranes were coated with 5 μL BBB-1 lipid solution (Pion Inc., Billerica, MA, USA) and the acceptor wells were filled with 200 μL BSB (Brain Sink Buffer, Pion Inc., Billerica, MA, USA). The plates were sandwiched together and incubated for 4 h at 37 °C (Thermo Scientific MaxQ 4450, Waltham, MA, USA). The results were determined by spectroscopic analysis (Multiskan GO microplate reader, Waltham, MA, USA), with the appropriate wavelength for a given compound (240 nm for […] salazinic acid, 250 nm for atranorin and squamatic acid, 263 nm for physodic acid, and 270 nm for lecanoric acid). […] Pe is the effective permeability coefficient (cm/s), VD-donor volume, VA-acceptor volume, Ceq-equilibrium concentration, Ceq=CD×VD+CA×VA/VD+VA , S-membrane area, and t-incubation time (in seconds). […] Samples were analyzed in triplicate, and the average was reported.

CCN(CC)CC(=O)Nc1c(C)cccc1C [Lidocaine, reference compound]
Papp at 4 h, 24.75 µg/mL: 25.5 ± 2.6 ×10⁻⁶ cm/s
